{"source": "paper PMC12557367", "about": "(Journal of Medicinal Chemistry, 2025)", "assay": "general procedure: Fmoc solid-phase peptide synthesis; Fmoc-Rink Amide resin (2-ClTrtCl resin for 8d); HATU/DIPEA", "details": "whole synthesis", "note": "Numbered stars: 1 amine (or outer) side, 2 acyl side, 3 side chain; on linkers, the order of the positions; unused ones are H or OH. Bridge positions count the residues as written; N and C are the ends. Square brackets hold non-standard residues; d marks the D form. * marks the point of attachment. TATA = O=C(CC[*:1])N1CN(C(=O)CC[*:2])CN(C(=O)CC[*:3])C1; X1 = O=C(O)CN1CCN(CC(=O)O)CCN([C@H](CCC(=O)*)C(=O)O)CC1; 1Nal = N[C@@H](Cc1cccc2ccccc12)C(=O)O; Hyp = O=C(O)[C@@H]1C[C@@H](O)CN1; hArg = N=C(N)NCCCC[C@H](N)C(=O)O; SeMet = C[Se]CC[C@H](N)C(=O)O"}
{"substance": "C[Se]CC[C@@H]1NC(=O)[C@@H]2CSCCC(=O)N3CN(CN(C3)C(=O)CCSC[C@H](NC(=O)CC[C@H](C(=O)O)N3CCN(CC(=O)O)CCN(CC(=O)O)CC3)C(=O)N3CCC[C@H]3C(=O)N[C@@H](Cc3cccc4ccccc34)C(=O)N[C@H](CC(=O)O)C(=O)N2)C(=O)CCSC[C@@H](C(N)=O)NC(=O)[C@H](Cc2c[nH]c3ccccc23)NC(=O)[C@@H]2C[C@@H](O)CN2C(=O)[C@@H]2CCCN2C(=O)[C@H]([C@@H](C)O)NC(=O)[C@H](CO)NC(=O)[C@H](Cc2c[nH]c3ccccc23)NC(=O)[C@H](CC(=O)O)NC(=O)[C@H](CCCCNC(=N)N)NC1=O (X1-CP[1Nal][dD]C[SeMet][hArg]DWSTP[Hyp]WC-NH2; linker 1-5-15 via TATA)", "values": [{"measurement": "final HPLC purity", "setting": "230 nm", "value": ">61", "unit": "%"}, {"measurement": "isolated yield", "setting": "on resin loading", "value": 6, "unit": "%"}]}
